The list shows a part of the results.

Amino acid sequences for entries named in this document (tags omitted).
UniProt Q0JBA9, entry or part of it: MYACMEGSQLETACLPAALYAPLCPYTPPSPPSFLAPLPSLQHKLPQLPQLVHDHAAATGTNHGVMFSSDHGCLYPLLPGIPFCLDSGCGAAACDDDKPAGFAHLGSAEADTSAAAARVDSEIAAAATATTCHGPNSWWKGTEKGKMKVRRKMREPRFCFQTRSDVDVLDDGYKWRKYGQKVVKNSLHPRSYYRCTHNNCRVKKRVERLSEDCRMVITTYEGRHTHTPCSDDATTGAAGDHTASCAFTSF

This assay concerns the target OsWRKY34 (Oryza sativa, UniProt Q0JBA9 1-250). In words: protein-binding microarray (RPBM); PBS, 2% BSA, 51.3 ng/ul salmon testes DNA, 50 uM zinc acetate, 200 nM TF, 25 C, 1 h; high values mean tight binding. The following applies: protein: recombinant; tags: N-terminal polyhistidine and DsRed monomer fusion (pET32a); label: CyDye5-dUTP incorporated in the synthesized complementary strand; 3' TTTTT single-stranded linker to array surface; dsDNA, one strand shown. In a few lines: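 Binding signal is reported as fluorescence intensity per feature (arbitrary units) from an Axon 4000B scanner. Incubation used 200 nM of each Ni–NTA-purified, N-terminally polyhistidine- and DsRed-fused transcription factor from E. coli BL21-CodonPlus on a double-stranded custom Agilent array for 1 h at 25 °C, with 50 µM zinc acetate in the buffer, followed by washing.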
Turning to “GAAGAGGGTGGTGATATTGTTCTGGATGATACTTTTGAAGCGGAGTCACCTAGTGCAG”, the binding signal is 10700 fluorescence intensity (a.u.).
The result for “CATCCTTTTCATCTCCCACCTCCTCACTCCTCGTCAGTTCCGGAGTCACCTAGTGCAG” reads 8280 fluorescence intensity (a.u.).
For the sequence “CTCCGTCCATCAAGCTACCAAACAACCGCCAGCGTAATCGCGGAGTCACCTAGTGCAG”, the binding signal is 9020 fluorescence intensity (a.u.).
On to “CCTCTTTTGCTGTGGACAATCAAAGCCTTTGTCTCACTATCGGAGTCACCTAGTGCAG”, for which the binding signal is 10500 fluorescence intensity (a.u.).
In the case of “CTGATCCGCCCACGCCTCGCCGTCCCCACCCGCGCCGCCTCGGAGTCACCTAGTGCAG”, the binding signal is 9100 fluorescence intensity (a.u.).
As for “CATGTCACATATTACGTTCATTTGAGTTCAATTTTTCTATCGGAGTCACCTAGTGCAG”, the binding signal was 9810 fluorescence intensity (a.u.).
On to “TTTCTACACCCTGTAGATCCTTGGACCCACATGCAGACCACGGAGTCACCTAGTGCAG”, for which the binding signal was 8730 fluorescence intensity (a.u.).
Consider “AATTATTTTTTCATTCTATGTGGGCCATCTTGTGGCTAAACGGAGTCACCTAGTGCAG”, for which the binding signal is 10200 fluorescence intensity (a.u.).
Regarding “CAAGTAATCAAGTATCCCAGCAATTGCAGTTTTTTTTTCCCGGAGTCACCTAGTGCAG”, the binding signal was 9400 fluorescence intensity (a.u.).
Take “CGTGTGTAGATCCTATTTTTTTCTTTAAACTTCCAACTTTCGGAGTCACCTAGTGCAG”: the binding signal is 9460 fluorescence intensity (a.u.).
The same measure for “GCTACATGTCCTTTCGTATCGTTGACGATGTCATGGGGTACGGAGTCACCTAGTGCAG”: 10900 fluorescence intensity (a.u.); for “TTGTGTAGGGTTTGTACATGGACTGGGATCAATACCACTCCGGAGTCACCTAGTGCAG”: 10600 fluorescence intensity (a.u.); for “TATTCAGTTTGCTCCAAATTTTATTGCTAATGCTACAGATCGGAGTCACCTAGTGCAG”: 8060 fluorescence intensity (a.u.).
On to “TAAATACCGTTTTTAGCTAACAGTCTTCACGATCAACTAACGGAGTCACCTAGTGCAG”, for which the binding signal was 8450 fluorescence intensity (a.u.).
Take “TTCTACCTATTTCAACCTCCAACTACCCGCTCACCACAACCGGAGTCACCTAGTGCAG”: the binding signal is 9040 fluorescence intensity (a.u.).
Consider “GGGGTGTGAATTCTGGCCGCACATTGTACCTACCCAAAAACGGAGTCACCTAGTGCAG”, for which the binding signal is 8920 fluorescence intensity (a.u.).
Turning to “AGGGTCTATTTTTGTAATTTTTTTGGCCGATAGATTATTTCGGAGTCACCTAGTGCAG”, the binding signal was 10300 fluorescence intensity (a.u.).
The result for “CCTGTTCTTTGTCTTCAACTCATCATGCTGTGGATGGATTCGGAGTCACCTAGTGCAG” reads 10300 fluorescence intensity (a.u.).
On to “ATCCAGTGAGCTCGAGGCTTCCCATCTATCCGCCGTTGGTCGGAGTCACCTAGTGCAG”, for which the binding signal is 8260 fluorescence intensity (a.u.).
Take “CACCGCCGAACGCACGATTTCTTCCCGACGCTGTCACTTGCGGAGTCACCTAGTGCAG”: the binding signal is 8190 fluorescence intensity (a.u.).
As for “CGACCGCGCCGCACCACCCGCCCGATCCGCCCGCGACCTCCGGAGTCACCTAGTGCAG”, the binding signal is 12700 fluorescence intensity (a.u.).
Take “CCCCAAGCCACACTCCACCCTGTGTTCGCTTTGTTCTCACCGGAGTCACCTAGTGCAG”: the binding signal is 8560 fluorescence intensity (a.u.).
The same measure for “TGCGCTTCTATCTCTATTTATACTGTGAATTCCAAGCAATCGGAGTCACCTAGTGCAG”: 8110 fluorescence intensity (a.u.).
Regarding “CAAACCGCGAATTTACGTGCCAACGTTTGACTGTTCGTCTCGGAGTCACCTAGTGCAG”, the binding signal is 8730 fluorescence intensity (a.u.).
Regarding “TTTCCGTTTTGCTACAGTTAGTTTTGTGTTGGGTTGGATTCGGAGTCACCTAGTGCAG”, the binding signal was 9740 fluorescence intensity (a.u.).
The same measure for “GTCCCATCGTCTCTATTCGGGTCACCTTTGCACAACATGACGGAGTCACCTAGTGCAG”: 10500 fluorescence intensity (a.u.).
For the sequence “GTCATTTTTGGCCTTTTTTGGCTGTCTGTTCGGTTTTTTTCGGAGTCACCTAGTGCAG”, the binding signal is 11500 fluorescence intensity (a.u.).
In the case of “TATTTTTTTTCTTATTTTCCTTCAATTAATGTGGGATTTTCGGAGTCACCTAGTGCAG”, the binding signal was 9850 fluorescence intensity (a.u.).
As to “CCGAAGTGTTTATGTTTAATTTTTTTGACAAATTTATGTTCGGAGTCACCTAGTGCAG”, the binding signal was 8310 fluorescence intensity (a.u.).
Consider “GTCCGTTTCAGCAAAGGTTATCTTCATCTCTGCAATTTTCCGGAGTCACCTAGTGCAG”, for which the binding signal is 11000 fluorescence intensity (a.u.).
Consider “TCCTACCGACGATTCCAGCCCACCACACTATGCAAAGCACCGGAGTCACCTAGTGCAG”, for which the binding signal is 8200 fluorescence intensity (a.u.).
The same measure for “CACTTATACTCCACTTACATTCCACTTAGGCACTTACACACGGAGTCACCTAGTGCAG”: 9110 fluorescence intensity (a.u.); for “AGTATTGAGTTAGAGAATTATTGCATGGCCCATTTCCTTTCGGAGTCACCTAGTGCAG”: 10200 fluorescence intensity (a.u.).
The result for “GAGATATCAGTAGCAGATCCTCGGGTTTTCTCACTCGATGCGGAGTCACCTAGTGCAG” reads 8220 fluorescence intensity (a.u.); that for “ATCTTTGTTTTCTTTCTTCCTTGGCATAGGCTGGTCTGGCCGGAGTCACCTAGTGCAG”, 11700 fluorescence intensity (a.u.); that for “CTATTTTTCTCCTTGGGATCATGGCAAGCATTTTTCGTCACGGAGTCACCTAGTGCAG”, 9370 fluorescence intensity (a.u.).
As to “GCCGCCACCTTCGCCTTTATAAAGCTTACCTTTGCTACCACGGAGTCACCTAGTGCAG”, the binding signal is 11500 fluorescence intensity (a.u.).
As for “CTTCCCCATCAGGCCATCACCCACCCACGCGCCTCGCTGACGGAGTCACCTAGTGCAG”, the binding signal was 10800 fluorescence intensity (a.u.).
The same measure for “TCGCTCGCCGCCGCTCCGCCGCCGCGCTCGCGCTCCACTGCGGAGTCACCTAGTGCAG”: 8640 fluorescence intensity (a.u.); for “CTTTCTACTCGCAGCTACTGCCTTCGGCTGTGTTTAGATCCGGAGTCACCTAGTGCAG”: 10000 fluorescence intensity (a.u.); for “CACTTGACTACTTGTCCATATCCACCTTGATTTTCGCTGACGGAGTCACCTAGTGCAG”: 8220 fluorescence intensity (a.u.).
Consider “GGTGAGCGTGTGCATGTTATGAGTCCATGCGTTTGTACTGCGGAGTCACCTAGTGCAG”, for which the binding signal was 9590 fluorescence intensity (a.u.).
